PubChem BioAssay AID1259254 – NCATS, 2017
Test: 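Gene knock-downs that lead to re-replication, shown by excess G2 DNA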 (primary screen). Cell system: human HCT116 colorectal cancer cells. Reagent: single siRNA against human genes. Time to read-out: 3 days. Measured: 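Imaged Hoechst DNA stain sorts each cell into a cycle phase by DNA amount; per plate, G2 fraction set to 0% for non-targeting and 100% for GMNN siRNA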. Direction: G2 robust z-score: higher = more G2 cells, more excess DNA replication. Rule for the call: 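An siRNA counts as active if its G2 robust z-score lies at least 5 MADs above the screen median; here such calls match roughly 38% of GMNN control or more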.
Here is an unselected part of about 59,000 reagents tested. About 1,550 of them (2.6%) were called active. 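G2 share is only a proxy for re-replication; each gene was hit by three separate siRNAs, and active genes were retested.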 Reagents against one gene are numbered here. Not all columns of the deposit are shown. No sequences are given here. Not stated in the record: the amount of reagent.

| target gene | reagent no. | G2 robust z-score | Outcome |
| --- | --- | --- | --- |
| GAB4 | 1 | -0.652 | inactive |
| GAB4 | 2 | 1.08 | inactive |
| GAB4 | 3 | 0.0719 | inactive |
| GPC4 | 1 | 0.259 | inactive |
| GPC4 | 2 | 0.178 | inactive |
| GPC4 | 3 | 0.0455 | inactive |
| LIMD1 | 1 | -0.299 | inactive |
| LIMD1 | 2 | -0.0992 | inactive |
| LIMD1 | 3 | 0.438 | inactive |
| LRRFIP2 | 1 | 0.834 | inactive |
| LRRFIP2 | 2 | 3.32 | inactive |
| LRRFIP2 | 3 | -0.0342 | inactive |
| PDLIM3 | 1 | 0.255 | inactive |
| PDLIM3 | 2 | -0.374 | inactive |
| PDLIM3 | 3 | -0.513 | inactive |
| RPL13AP20 | 1 | 0.577 | inactive |
| RPL13AP20 | 2 | 1.41 | inactive |
| RPL13AP20 | 3 | 4.91 | inactive |
| ERLEC1 | 1 | -0.787 | inactive |
| ERLEC1 | 2 | -0.46 | inactive |
| ERLEC1 | 3 | -0.192 | inactive |
| DYNAP | 1 | 1.79 | inactive |
| DYNAP | 2 | 3.31 | inactive |
| DYNAP | 3 | -0.309 | inactive |
| ACTG1 | 1 | -0.842 | inactive |
| ACTG1 | 2 | -1.02 | inactive |
| ACTG1 | 3 | 1.22 | inactive |
| GOLGA6L9 | 1 | 0.0964 | inactive |
| GOLGA6L9 | 2 | -0.65 | inactive |
| GOLGA6L9 | 3 | -0.275 | inactive |
| ARMC3 | 1 | 1.52 | inactive |
| ARMC3 | 2 | 0.397 | inactive |
| ARMC3 | 3 | -0.113 | inactive |
| GFRA2 | 1 | -0.286 | inactive |
| GFRA2 | 2 | -0.171 | inactive |
| GFRA2 | 3 | 2.22 | inactive |
| ESYT1 | 1 | 1.78 | inactive |
| ESYT1 | 2 | 2.8 | inactive |
| ESYT1 | 3 | 4.08 | inactive |
| CFAP92 | 1 | 0.865 | inactive |
| CFAP92 | 2 | 3.31 | inactive |
| CFAP92 | 3 | 1.36 | inactive |
| CFAP58 | 1 | 0.136 | inactive |
| CFAP58 | 2 | 0.979 | inactive |
| CFAP58 | 3 | -0.534 | inactive |
| AP4B1 | 1 | -0.392 | inactive |
| AP4B1 | 2 | -0.149 | inactive |
| AP4B1 | 3 | 0.365 | inactive |
| ABHD16B | 1 | 0.0923 | inactive |
| ABHD16B | 2 | -0.616 | inactive |
| ABHD16B | 3 | 0.158 | inactive |
| CDS1 | 1 | -0.215 | inactive |
| CDS1 | 2 | -0.605 | inactive |
| CDS1 | 3 | 7.68 | active |
| TMIGD1 | 1 | 1.41 | inactive |
| TMIGD1 | 2 | -0.877 | inactive |
| TMIGD1 | 3 | -0.514 | inactive |
| PLXNB1 | 1 | 2.77 | inactive |
| PLXNB1 | 2 | 3.92 | inactive |
| PLXNB1 | 3 | 0.484 | inactive |
| TSPAN12 | 1 | -0.761 | inactive |
| TSPAN12 | 2 | -0.258 | inactive |
| TSPAN12 | 3 | -0.291 | inactive |
| MICU1 | 1 | -1.01 | inactive |
| MICU1 | 2 | -0.829 | inactive |
| MICU1 | 3 | -0.233 | inactive |
| LEPROT | 1 | 0.0739 | inactive |
| LEPROT | 2 | -0.76 | inactive |
| LEPROT | 3 | -1.38 | inactive |

As entered above:
For “Outcome”, LIMD1 #3 has inactive
GPC4 #1, Outcome → inactive
PLXNB1 #3, Outcome = inactive
LIMD1 #2, G2 robust z-score → -0.0992
Result for ABHD16B #2 in “G2 robust z-score”: -0.616
GPC4 #2, G2 robust z-score = 0.178
